Measured values reported in paper doi:10.1101/2022.12.23.521780.
Read-outs that look alike come from different tables or passages of the source. Results are given in words; binding and its absence hold for the method and conditions named. Binding seen in cells or lysates may run through a third protein. Some entries that bind do so weakly or less than the wild type. For part of these data: Tags and fused reporters may be left off the sequences shown.

Amino acid sequences for entries named in this document (tags omitted).
UniProt P03372: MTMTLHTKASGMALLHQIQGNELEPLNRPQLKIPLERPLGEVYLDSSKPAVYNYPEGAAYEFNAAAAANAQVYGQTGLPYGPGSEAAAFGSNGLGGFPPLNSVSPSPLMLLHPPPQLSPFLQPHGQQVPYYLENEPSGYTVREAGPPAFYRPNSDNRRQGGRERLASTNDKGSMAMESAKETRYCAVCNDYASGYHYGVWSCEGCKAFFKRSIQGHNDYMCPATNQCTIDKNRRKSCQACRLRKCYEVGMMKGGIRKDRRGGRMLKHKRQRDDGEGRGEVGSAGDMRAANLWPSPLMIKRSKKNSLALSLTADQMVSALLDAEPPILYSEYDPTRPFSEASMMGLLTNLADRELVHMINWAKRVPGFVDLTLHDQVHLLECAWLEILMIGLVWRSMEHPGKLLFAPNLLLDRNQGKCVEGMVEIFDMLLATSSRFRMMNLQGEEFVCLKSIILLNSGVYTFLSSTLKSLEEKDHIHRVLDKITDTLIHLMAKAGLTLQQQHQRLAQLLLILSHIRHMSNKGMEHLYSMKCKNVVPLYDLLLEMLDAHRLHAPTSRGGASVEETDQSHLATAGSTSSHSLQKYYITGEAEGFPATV

Columns and labels:
Experiment in all cases: co-IP
[1] = target: T1, Endogenous MYSM1 (human (endogenous in MCF-7 and T47D)) (UniProt Q5VVJ2)
T1 sequence: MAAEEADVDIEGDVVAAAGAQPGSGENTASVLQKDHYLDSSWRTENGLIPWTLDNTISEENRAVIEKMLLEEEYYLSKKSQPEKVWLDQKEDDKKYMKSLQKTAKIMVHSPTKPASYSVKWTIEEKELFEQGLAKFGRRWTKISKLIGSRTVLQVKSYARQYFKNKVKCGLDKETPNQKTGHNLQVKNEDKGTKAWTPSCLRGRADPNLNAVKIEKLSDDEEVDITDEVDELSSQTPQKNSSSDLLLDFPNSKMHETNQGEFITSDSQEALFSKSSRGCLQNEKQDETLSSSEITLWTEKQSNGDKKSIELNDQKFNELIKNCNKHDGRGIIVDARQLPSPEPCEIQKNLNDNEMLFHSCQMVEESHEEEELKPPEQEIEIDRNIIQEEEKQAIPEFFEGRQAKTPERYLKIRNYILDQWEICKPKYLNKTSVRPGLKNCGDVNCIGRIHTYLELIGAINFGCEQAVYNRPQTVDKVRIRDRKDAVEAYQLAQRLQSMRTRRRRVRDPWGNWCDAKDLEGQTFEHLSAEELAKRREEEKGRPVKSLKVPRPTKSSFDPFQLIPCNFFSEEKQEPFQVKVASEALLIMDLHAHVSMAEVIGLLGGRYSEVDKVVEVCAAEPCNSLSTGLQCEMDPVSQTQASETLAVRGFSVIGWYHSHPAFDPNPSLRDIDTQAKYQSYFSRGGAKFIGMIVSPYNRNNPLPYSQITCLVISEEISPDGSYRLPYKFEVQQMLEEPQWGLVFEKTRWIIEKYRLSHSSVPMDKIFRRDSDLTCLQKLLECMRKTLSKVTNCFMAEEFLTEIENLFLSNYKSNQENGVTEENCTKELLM

[2] = target: T2, FLAG-tagged MYSM1 (Myb like, SWIRM and MPN domains 1), full length (human) (UniProt Q5VVJ2)
T2 sequence: T1 sequence

[3] = target: T2, FLAG-tagged MYSM1 (Myb like, SWIRM and MPN domains 1), full length (human); remark: listed apart in the source

Row | Substance | binding [1] | binding [2] | binding [3]
1 | Endogenous estrogen receptor alpha (ERα) (from UniProt P03372 1-595) | binds | – | –
2 | Estrogen receptor alpha (ERα), ectopically expressed (from UniProt P03372 1-595) | – | binds | binds
